PubChem BioAssay AID1224829 | NIAID, 2016
This is a random part of about 3,800 deposited reagents. 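Calls cover raised and lowered translocation; gene median uses one vendor's three siRNAs; qiagen siRNAs acted more weakly than ambion siRNAs.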 A number with no mark means an inactive call. The numbers tell different reagents against one gene apart. Further read-outs or replicates are left out here.

- Assay: 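Follow-up of TLR4-NF-kappaB regulators using six separate siRNAs for each gene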 (follow-up of hits)
- Cell system: mouse RAW264.7 G9 macrophage reporter cells
- Reagents: single siRNA against mouse genes, 100 nM
- Time to read-out: 2 days of siRNA knock-down, then 40 min of LPS before fixing
- Treatment: LPS (Salmonella minnesota R595) at 10 ng/ml
- Read-out: 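Imaging of GFP-p65 after 40 min of LPS; nuclear over perinuclear ring intensity ratio, scaled to plate median and non-targeting control wells, given as z-score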
- Reading the numbers: p65 translocation z-score: higher = more nuclear NF-kappaB p65 after LPS
- Rule for the call: 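Active means the replicate-mean z-score lies beyond plus or minus 2, in either direction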
- Calls: active = changed p65 translocation (either direction); inactive = no clear change

| gene knocked down | siRNA no. | siRNA vendor or control pool | p65 translocation z-score, replicate mean |
| --- | --- | --- | --- |
| Psmb4 (proteasome (prosome, macropain) subunit, beta type 4) | 1 | ambion single siRNA | 1.52 |
| Psmb4 (proteasome (prosome, macropain) subunit, beta type 4) | 2 | ambion single siRNA | -1.03 |
| Psmb4 (proteasome (prosome, macropain) subunit, beta type 4) | 3 | ambion single siRNA | -3.21 (active) |
| Psmb4 (proteasome (prosome, macropain) subunit, beta type 4) | 4 | qiagen single siRNA | -1.8 |
| Psmb4 (proteasome (prosome, macropain) subunit, beta type 4) | 5 | qiagen single siRNA | -3.46 (active) |
| Psmb4 (proteasome (prosome, macropain) subunit, beta type 4) | 6 | qiagen single siRNA | -8.48 (active) |
| Grb2 (growth factor receptor bound protein 2) | 1 | ambion single siRNA | 1.55 |
| Grb2 (growth factor receptor bound protein 2) | 2 | ambion single siRNA | -2.43 (active) |
| Grb2 (growth factor receptor bound protein 2) | 3 | ambion single siRNA | -1.1 |
| Grb2 (growth factor receptor bound protein 2) | 4 | qiagen single siRNA | 1.06 |
| Grb2 (growth factor receptor bound protein 2) | 5 | qiagen single siRNA | 1.5 |
| Grb2 (growth factor receptor bound protein 2) | 6 | qiagen single siRNA | -0.504 |

Continued, starting with the last 2 of the part before.
| gene knocked down | siRNA no. | siRNA vendor or control pool | p65 translocation z-score, replicate mean |
| --- | --- | --- | --- |
| Grb2 (growth factor receptor bound protein 2) | 5 | qiagen single siRNA | 1.5 |
| Grb2 (growth factor receptor bound protein 2) | 6 | qiagen single siRNA | -0.504 |
| Ca5a (carbonic anhydrase 5A) | 1 | ambion single siRNA | -2.61 (active) |
| Ca5a (carbonic anhydrase 5A) | 2 | ambion single siRNA | -2.17 (active) |
| Ca5a (carbonic anhydrase 5A) | 3 | ambion single siRNA | -0.397 |
| Ca5a (carbonic anhydrase 5A) | 4 | qiagen single siRNA | 2.33 (active) |
| Ca5a (carbonic anhydrase 5A) | 5 | qiagen single siRNA | -1.73 |
| Ca5a (carbonic anhydrase 5A) | 6 | qiagen single siRNA | 0.285 |
| Gphr (golgi pH regulator) | 1 | ambion single siRNA | 0.62 |
| Gphr (golgi pH regulator) | 2 | ambion single siRNA | -4.12 (active) |
| Gphr (golgi pH regulator) | 3 | ambion single siRNA | -11.7 (active) |
| Gphr (golgi pH regulator) | 4 | qiagen single siRNA | 0.6 |
| Gphr (golgi pH regulator) | 5 | qiagen single siRNA | -7.24 (active) |
| Gphr (golgi pH regulator) | 6 | qiagen single siRNA | -3.7 (active) |
| Nhlrc2 (NHL repeat containing 2) | 1 | ambion single siRNA | 2.6 (active) |
| Nhlrc2 (NHL repeat containing 2) | 2 | ambion single siRNA | -5.46 (active) |
| Nhlrc2 (NHL repeat containing 2) | 3 | ambion single siRNA | -5.95 (active) |
| Nhlrc2 (NHL repeat containing 2) | 4 | qiagen single siRNA | 1.19 |
| Nhlrc2 (NHL repeat containing 2) | 5 | qiagen single siRNA | -0.0827 |
| Nhlrc2 (NHL repeat containing 2) | 6 | qiagen single siRNA | 0.751 |
| Dnajc27 (DnaJ heat shock protein family (Hsp40) member C27) | 1 | ambion single siRNA | -2.53 (active) |
| Dnajc27 (DnaJ heat shock protein family (Hsp40) member C27) | 2 | ambion single siRNA | -2.12 (active) |
| Dnajc27 (DnaJ heat shock protein family (Hsp40) member C27) | 3 | ambion single siRNA | -4.06 (active) |
| Dnajc27 (DnaJ heat shock protein family (Hsp40) member C27) | 4 | qiagen single siRNA | 1.08 |
| Dnajc27 (DnaJ heat shock protein family (Hsp40) member C27) | 5 | qiagen single siRNA | -0.0829 |
| Dnajc27 (DnaJ heat shock protein family (Hsp40) member C27) | 6 | qiagen single siRNA | -2.86 (active) |
